# Laboratory results as given in PubChem BioAssay AID1259415 (National Center for Advancing Translational Sciences (NCATS), 2018).
# Values joined by “and” are separate entries in the source; they are usually repeats but may differ in a detail not shown here. Equal values may be shown once. Screen size: about 410,000 compounds; about 18,000 (4.4%) were called active. Inconclusive means that the source gave no clear call. Such entries were picked first, then a sample of the others. Cut-off read from the data, not from the text of the source: active = activity change below about -60%; inconclusive = no clear call, values can overlap the other calls; inactive = above about -39%.
# Experiment: qHTS Assay for inhibitors of the human cytomegalovirus (HCMV)
# Conditions: HFF cells, HCMV-luciferase reporter, 72 h; at 57.5 µM; stronger effect = lower value
# In short: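 Inhibition of viral replication was scored as loss of reporter luminescence in HFFs infected with HCMV-luciferase (MOI 1 PFU/cell) for 72 h; compounds tested at 2 doses, normalized to buffer and Salinomycin controls.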
# % is set by controls: 0 for no effect and ±100 for the full control effect.
row,Compound,"activity change, negative = inhibition"
1,O=C(CSc1nccn1-c1ccc(Cl)cc1)Nc1ccc(Cl)c(Cl)c1,inconclusive: -54.6%
2,O=C1C(c2ccc(F)cc2)N(CCc2ccc(Cl)cc2)C(=O)CN1C1CCCCCC1 (stereo unspecified),active: -81.9%
3,CCNC(=O)CCc1nc(-c2ccc(C(C)(C)C)cc2)no1,inconclusive: -55.1%
4,CC(NC(=O)C(Cc1ccccc1)N1C(=O)C2C3CCC(C3)C2C1=O)c1ccccc1 (stereo unspecified),active: -61.1%
5,Cc1ccccc1N/C(SCc1cccc(Br)c1)=C(/C#N)C(N)=O,active: -68.5%
6,COC(=O)CN(c1cccc(C)c1)S(=O)(=O)c1ccccc1,inactive: 9.8%
7,Cc1ccc2nc(NC(=O)c3ccccn3)sc2c1,active: -98.4%
8,COc1cc(-c2nnc(CSc3nnc(Nc4ccc(C(C)C)cc4)s3)o2)cc(OC)c1OC,inactive: 40.7%
9,C/C(=N\NS(=O)(=O)c1ccc(C)c([N+](=O)[O-])c1)c1cccs1,inconclusive: -40.8%
10,O=C(NCCCN1CCN(c2ccc(F)cc2)CC1)C1CCCN(c2ncnc3c2nc2n3CCCCC2)C1 (stereo unspecified),inconclusive: -55.7%
11,COc1ccccc1N1CCN(S(=O)(=O)c2ccc(F)c(C(=O)Nc3ccc(C)c(F)c3)c2)CC1,inconclusive: -49.6%
12,COc1ccccc1C(C)NC(=O)c1cc(S(=O)(=O)N2CCCCC2)ccc1C (stereo unspecified),inconclusive: -41.4%
13,C=CCNC(=O)/C(C#N)=C/c1c(N2CCCCCC2)nc2ccccn2c1=O,inconclusive: -45.7%
14,CCOc1ccc2nc(N3CCCC(C(=O)Nc4ccc(Br)c(C)c4)C3)sc2c1 (stereo unspecified),inactive: 23.8%
15,O=C(Cc1ccc(Cl)cc1)Nc1cccnc1Cl,inactive: -30.9%
16,Cc1cccn2c(=O)c(C(=O)NC3CCCCC3C)c(O)nc12 (stereo unspecified),inconclusive: -42.4%
17,Cc1ccc(-c2cc(C(=O)NCCc3ccccn3)c3ccccc3n2)c(C)c1,inconclusive: -45.4%
18,CC1=CC(C)(C)Nc2ccc(OC(=O)C(Cc3ccccc3)N3C(=O)c4ccccc4C3=O)cc21 (stereo unspecified),inconclusive: -59.6%
19,CCc1nnc2c(NCc3ccc(F)cc3)nc3ccccc3n12,inactive: -4.87%

row,Compound,"activity change, negative = inhibition"
1,COc1ccc(CNC(=O)C2CCCN(S(=O)(=O)c3ccc4c(c3)CCCN4C(C)=O)C2)cc1 (stereo unspecified),inactive: -32.1% and inactive: -16.1%
2,CCOC1OC2C(CO)OC(n3cnc4c(N)ncnc43)C2O1 (stereo unspecified),inactive: -16.5%
3,O=C(NC(=S)NCCc1ccc(Cl)cc1)c1ccco1,inconclusive: -49%
4,O=C(NC1(C(F)(F)F)NC(=O)N(c2ccccc2)C1=O)c1cccs1 (stereo unspecified),inconclusive: -51%
5,CCCCn1c(N)c(N(CC(C)C)C(=O)C2CCN(c3ncnc4sc(C)c(C)c34)CC2)c(=O)[nH]c1=O,inconclusive: -54.3%
6,COc1ccc(N/C=C/C(=O)c2ccc(OC)c(OC)c2)cc1,inconclusive: -50.8%
7,N=C1S/C(=C\c2cccc3ccccc23)C(=O)N1c1ccc(F)cc1,active: -71.3%
8,Cc1ccc(NC(=O)Cn2c(=O)n(Cc3ccco3)c(=O)c3ccccc32)cc1,inactive: -18.8%
9,Cc1c2cnn(CC(=O)NC3CCCC3)c(=O)c2c(C)n1Cc1ccccc1,inactive: 27%
10,CN(C)S(=O)(=O)c1cccc(NC(=O)CNCC2CCCCC2)c1,inactive: 6.37%
11,Cc1ccc(C(=O)N2CCCC(C(F)(F)F)C2)cc1S(=O)(=O)N1CCOCC1 (stereo unspecified),inconclusive: -48.3%
12,CCOC(=O)c1cc[nH]c1CC(=O)NC,inconclusive: -59.6%
13,O=C(Nc1ccc(Cl)cc1)P(=O)(O)c1ccccc1,inactive: 2.13%
14,O=C(Nc1ccc(Oc2ccsc2C(=O)O)cc1)c1ccccc1F,inactive: -32.2%
15,O=C(c1ccc2c(c1)OCCO2)N(Cc1cccnc1)c1nc2ccc(F)cc2s1,inconclusive: -57.8%
16,CC1CCN(CC(O)COC2CCC(C(C)(C)C)CC2)CC1 (stereo unspecified),inconclusive: -55.8%
17,COc1ccc(/C=N\NC(=O)c2cccc(F)c2)cc1COc1ccccc1,active: -86.5%
18,CCCn1c(Nc2nc3ccccc3n2C)nc2ccccc21,active: -99.8%
19,Cc1ccc(NC(=O)CSCC(=O)N2c3ccccc3CCc3ccccc32)cc1,inactive: -16.4%

row,Compound,"activity change, negative = inhibition"
1,N#Cc1ccc(C(=O)N2CCN(c3nc4ccc(F)cc4s3)CC2)cc1,inconclusive: -51%
2,O=c1cc2c(nn1Cc1cccc([N+](=O)[O-])c1)-c1ccccc1CC2,inactive: -18.1%
3,CCCN1C(=O)c2cccc3c(N4CCCCC4)ccc(c23)C1=O,inactive: 22.8%
4,COC(=O)Cc1[nH]nc2c1C1(C(=O)N(Cc3ccccc3)c3ccccc31)C(C#N)=C(N)O2 (stereo unspecified),inactive: 33.2%
5,CCc1ccc(Nc2cc(C)nc3nc(Cc4ccc(Cl)cc4)nn23)cc1,active: -91.5%
6,Cc1cc(C)nc(OC(C(=O)O)C(OCC(C)C)(c2ccccc2)c2ccccc2)n1 (stereo unspecified),inactive: -10.5%
7,Cc1ccc(NC(=O)CN(C)CC(=O)Nc2ccc(F)c(F)c2F)c(Cl)c1,inconclusive: -44.5%
8,CCN(CC)c1ccc(S(=O)(=O)N2CCOCC2)cc1NC(=O)CN1CCN(Cc2ccccc2)CC1,inconclusive: -47%
9,CC(C)(C)c1ccc(-c2noc(CCC(N)=O)n2)cc1,inconclusive: -56.3%
10,O=C(OCc1ccccc1)C1CCCN1C(=O)c1ccccc1[N+](=O)[O-] (stereo unspecified),inactive: 4.37%
11,COc1ccc(Cl)cc1NS(=O)(=O)c1cccc2cccnc12,inconclusive: -54.3%
12,O=C(C(=S)N1CCOCC1)c1c[nH]c2ccccc12,inactive: -21.8%
13,COc1cc(OC)c(NC(=O)CCCn2c(=O)oc3ccccc32)cc1Cl,inconclusive: -55.7%
14,O=C(NCCOc1ccccc1)C1CCCCC1,inactive: -2.62%
15,CC(C)Cn1c(N)c(C(=O)COC(=O)CC23CC4CC(CC(C4)C2)C3)c(=O)n(C)c1=O,active: -66.7%
16,Cc1ncc([N+](=O)[O-])n1CC(=O)Nc1ccc(Br)cc1,inactive: 10.9%
17,N/C(=N\OC(=O)CCC1CCCC1)c1ccc(Cl)cc1,inconclusive: -46.5%
18,CCOC(=O)NC(=O)COC(=O)c1cccc2ccccc12,inconclusive: -41.3%

# Reformatted with tabs: part of the list above.
row	Compound	activity change, negative = inhibition
1	N#Cc1ccc(C(=O)N2CCN(c3nc4ccc(F)cc4s3)CC2)cc1	inconclusive: -51%
2	O=c1cc2c(nn1Cc1cccc([N+](=O)[O-])c1)-c1ccccc1CC2	inactive: -18.1%
3	CCCN1C(=O)c2cccc3c(N4CCCCC4)ccc(c23)C1=O	inactive: 22.8%
4	COC(=O)Cc1[nH]nc2c1C1(C(=O)N(Cc3ccccc3)c3ccccc31)C(C#N)=C(N)O2 (stereo unspecified)	inactive: 33.2%
6	Cc1cc(C)nc(OC(C(=O)O)C(OCC(C)C)(c2ccccc2)c2ccccc2)n1 (stereo unspecified)	inactive: -10.5%
7	Cc1ccc(NC(=O)CN(C)CC(=O)Nc2ccc(F)c(F)c2F)c(Cl)c1	inconclusive: -44.5%
8	CCN(CC)c1ccc(S(=O)(=O)N2CCOCC2)cc1NC(=O)CN1CCN(Cc2ccccc2)CC1	inconclusive: -47%
9	CC(C)(C)c1ccc(-c2noc(CCC(N)=O)n2)cc1	inconclusive: -56.3%
10	O=C(OCc1ccccc1)C1CCCN1C(=O)c1ccccc1[N+](=O)[O-] (stereo unspecified)	inactive: 4.37%
13	COc1cc(OC)c(NC(=O)CCCn2c(=O)oc3ccccc32)cc1Cl	inconclusive: -55.7%
14	O=C(NCCOc1ccccc1)C1CCCCC1	inactive: -2.62%
15	CC(C)Cn1c(N)c(C(=O)COC(=O)CC23CC4CC(CC(C4)C2)C3)c(=O)n(C)c1=O	active: -66.7%
16	Cc1ncc([N+](=O)[O-])n1CC(=O)Nc1ccc(Br)cc1	inactive: 10.9%
18	CCOC(=O)NC(=O)COC(=O)c1cccc2ccccc12	inconclusive: -41.3%
